Data as given in PubChem BioAssay AID1259425 (University of Nebraska Medical Center, 2018)
The whole screen tested about 14,000 reagents; shown is a part drawn at random. The record does not give: the time to read-out.

Aim: 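Compare each knockdown with KSR1 silencing using changes in marker transcripts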 (primary screen)
System: HCT116 human colon cancer cells
Reagents: siRNA pool against human genes, 50 nM siRNA
Detection: 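After 50 nM siRNA pool, branched-DNA assay measures six marker transcripts per well, minus blank, normalised to the geometric mean of two housekeeping transcripts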
Reading the numbers: BNIP3L mRNA: higher = more BNIP3L transcript after knockdown; NDRG1 mRNA: higher = more NDRG1 transcript after knockdown; BNIP3 mRNA: higher = more BNIP3 transcript after knockdown; ALDOC mRNA: higher = more ALDOC transcript after knockdown; ACSL5 mRNA: higher = more ACSL5 transcript after knockdown

| Gene | BNIP3L mRNA, set 1 | NDRG1 mRNA, set 1 | BNIP3 mRNA, set 1 | ALDOC mRNA, set 1 | ACSL5 mRNA, set 1 |
| --- | --- | --- | --- | --- | --- |
| PSD3 (GeneID 23362) | 0.0912 | 0.337 | 0.277 | 0.0496 | 0.151 |
| ELP1 (GeneID 8518) | 0.0747 | 0.121 | 0.381 | 0.0103 | 0.341 |
| TMOD3 (GeneID 29766) | 0.116 | 0.469 | 0.621 | 0.0808 | 0.384 |
| RPS27L (GeneID 51065) | 0.163 | 0.448 | 0.404 | 0.0458 | 0.235 |
| CD163 (GeneID 9332) | 0.0452 | 0.323 | 0.242 | 0.0277 | 0.15 |
| WNK1 (GeneID 65125) | 0.0572 | 0.176 | 0.272 | 0.00414 | 0.515 |
| TSPYL2 (GeneID 64061) | 0.115 | 0.155 | 0.39 | 0.0239 | 0.158 |
| NR2F2 (GeneID 7026) | 0.111 | 0.254 | 0.241 | 0.0761 | 0.129 |
| RAD51B (GeneID 5890) | 0.0606 | 0.117 | 0.206 | 0.0346 | 0.0896 |
| LIG3 (GeneID 3980) | 0.072 | 0.0523 | 0.443 | 0.00844 | 0.104 |
| TAS1R2 (GeneID 80834) | 0.202 | 0.263 | 0.391 | 0.0227 | 0.0756 |
| KLHL27 (GeneID 3652) | 0.105 | 0.137 | 0.239 | 0.0135 | 0.0922 |
| PDE6A (GeneID 5145) | 0.06 | 0.127 | 0.309 | 0.0112 | 0.113 |
| TACR2 (GeneID 6865) | 0.182 | 0.356 | 0.42 | 0.213 | 0.227 |
| KAT8 (GeneID 84148) | 0.254 | 0.289 | 0.242 | 0.0773 | 0.374 |
| PABPC3 (GeneID 5042) | 0.119 | 0.318 | 0.255 | 0.0447 | 0.29 |
| RBM4 (GeneID 5936) | 0.158 | 0.373 | 0.276 | 0.0573 | 0.178 |
| TIGD5 (GeneID 84948) | 0.0814 | 0.175 | 0.237 | 0.0112 | 0.112 |
| IQSEC3 (GeneID 440073) | 0.124 | 0.133 | 0.357 | 0.0102 | 0.0402 |
| ATP5ME (GeneID 521) | 0.0957 | 0.259 | 0.31 | 0.0103 | 0.0913 |
| CDT1 (GeneID 81620) | 0.148 | 0.546 | 0.562 | 0.046 | 0.166 |
| ABCC4 (GeneID 10257) | 0.149 | 0.113 | 0.309 | 0.0312 | 0.147 |
| CA2 (GeneID 760) | 0.115 | 0.203 | 0.317 | 0.0114 | 0.121 |
| PRKAR1B (GeneID 5575) | 0.0668 | 0.13 | 0.286 | 0.00964 | 0.121 |
| ADRM1 (GeneID 11047) | 0.184 | 0.156 | 0.221 | 0.0353 | 0.0818 |
| AVPR2 (GeneID 554) | 0.253 | 0.949 | 0.448 | 0.0599 | 0.302 |
| FRG2 (GeneID 448831) | 0.137 | 0.417 | 0.284 | 0.0232 | 0.293 |
| ABCG1 (GeneID 9619) | 0.154 | 1.05 | 0.291 | 0.0247 | 0.241 |
| TTC12 (GeneID 54970) | 0.0783 | 0.153 | 0.286 | 0.0222 | 0.211 |
| CELF1 (GeneID 10658) | 0.13 | 0.0681 | 0.3 | 0.00375 | 0.302 |
| SYT17 (GeneID 51760) | 0.0978 | 0.178 | 0.282 | 0.0252 | 0.222 |
| PDCD11 (GeneID 22984) | 0.182 | 0.395 | 0.334 | 0.0201 | 0.22 |
| MS4A14 (GeneID 84689) | 0.157 | 0.215 | 0.341 | 0.0385 | 0.428 |
| VDAC3 (GeneID 7419) | 0.0949 | 0.303 | 0.386 | 0.062 | 0.35 |
| MACF1 (GeneID 23499) | 0.0768 | 0.152 | 0.122 | 0.0104 | 0.303 |
| UGT2B7 (GeneID 7364) | 0.093 | 1.63 | 0.306 | 0.0144 | 0.313 |
| TRMT1L (GeneID 81627) | 0.136 | 0.447 | 0.42 | 0.0507 | 0.134 |
| GTSE1 (GeneID 51512) | 0.107 | 0.153 | 0.237 | 0.00407 | 0.136 |
| RFX4 (GeneID 5992) | 0.125 | 0.124 | 0.308 | 0.0163 | 0.171 |
| KIR3DL3 (GeneID 115653) | 0.0532 | 0.0608 | 0.255 | 0.00878 | 0.0981 |
| SRRT (GeneID 51593) | 0.159 | 0.588 | 0.282 | 0.013 | 0.199 |
| MSR1 (GeneID 4481) | 0.0872 | 0.067 | 0.268 | 0.0318 | 0.0879 |
| RPS29 (GeneID 6235) | 0.192 | 0.739 | 0.447 | 0.0432 | 0.235 |
| PRX (GeneID 57716) | 0.0563 | 0.0612 | 0.206 | 0.00929 | 0.136 |
| VPS16 (GeneID 64601) | 0.0798 | 0.106 | 0.366 | 0.013 | 0.0699 |
| S100G (GeneID 795) | 0.0823 | 0.116 | 0.213 | 0.0243 | 0.155 |
| PODXL2 (GeneID 50512) | 0.14 | 0.275 | 0.494 | 0.0231 | 0.193 |
| STRIP2 (GeneID 57464) | 0.0863 | 0.22 | 0.218 | 0.0342 | 0.302 |
| CECR2 (GeneID 27443) | 0.0879 | 0.706 | 0.392 | 0.0255 | 0.206 |
| COG8 (GeneID 84342) | 0.2 | 0.166 | 0.343 | 0.107 | 0.499 |
| GOLM1 (GeneID 51280) | 1.09 | 1.75 | 3.33 | 0.479 | 0.0834 |
| AP2B1 (GeneID 163) | 0.0608 | 0.26 | 0.307 | 0.0271 | 0.127 |
| GSTA2 (GeneID 2939) | 0.178 | 0.236 | 0.466 | 0.0229 | 0.0883 |
| GDPD5 (GeneID 81544) | 0.066 | 0.349 | 0.281 | 0.0178 | 0.161 |
| BYSL (GeneID 705) | 0.151 | 0.166 | 0.259 | 0.0166 | 0.0824 |
| INIP (GeneID 58493) | 0.16 | 0.101 | 0.412 | 0.0489 | 0.193 |
| HAS2 (GeneID 3037) | 0.111 | 0.0684 | 0.292 | 0.0164 | 0.0717 |
| CENPI (GeneID 2491) | 0.0774 | 0.148 | 0.259 | 0.0486 | 0.228 |
| PFKL (GeneID 5211) | 0.237 | 0.172 | 0.508 | 0.00218 | 0.115 |
| RPS7 (GeneID 6201) | 0.22 | 0.444 | 0.365 | 0.0125 | 0.154 |
| PPM1D (GeneID 8493) | 0.0543 | 0.195 | 0.228 | 0.0169 | 0.266 |
| MLEC (GeneID 9761) | 0.141 | 0.227 | 0.441 | 0.053 | 0.115 |
| PIK3R1 (GeneID 5295) | 0.184 | 0.0899 | 0.417 | 0.00859 | 0.496 |

7 consecutive reagents already listed, for reference:
| Gene | BNIP3L mRNA, set 1 | NDRG1 mRNA, set 1 | BNIP3 mRNA, set 1 | ALDOC mRNA, set 1 | ACSL5 mRNA, set 1 |
| --- | --- | --- | --- | --- | --- |
| VPS16 (GeneID 64601) | 0.0798 | 0.106 | 0.366 | 0.013 | 0.0699 |
| S100G (GeneID 795) | 0.0823 | 0.116 | 0.213 | 0.0243 | 0.155 |
| PODXL2 (GeneID 50512) | 0.14 | 0.275 | 0.494 | 0.0231 | 0.193 |
| STRIP2 (GeneID 57464) | 0.0863 | 0.22 | 0.218 | 0.0342 | 0.302 |
| CECR2 (GeneID 27443) | 0.0879 | 0.706 | 0.392 | 0.0255 | 0.206 |
| COG8 (GeneID 84342) | 0.2 | 0.166 | 0.343 | 0.107 | 0.499 |
| GOLM1 (GeneID 51280) | 1.09 | 1.75 | 3.33 | 0.479 | 0.0834 |
